According to PubChem BioAssay AID1671190 (National Center for Advancing Translational Sciences (NCATS), 2021):
Values joined by “and” are separate entries in the source; they are usually repeats but may differ in a detail not shown here. Equal entries are not always repeated. In all, about 580,000 compounds went through this assay and about 6,100 (1.1%) were called active. Inconclusive results, whose numbers are uncertain, are shown with a selection of clear calls. Calls come from the whole dose curve; as a rule, active = well fitted inhibition curve with a large enough effect; inconclusive = small, poorly fitted or top-dose-only effect, or another doubt; inactive = no such curve, though single readings can be large or run the other way. Potencies of inconclusive entries are doubtful fits and often do not repeat.

Sequences of proteins named here, by UniProt entry; tags and fusion partners are left off. A change or cut given only in a name is not applied to a line headed by its entry.
UniProt P18054: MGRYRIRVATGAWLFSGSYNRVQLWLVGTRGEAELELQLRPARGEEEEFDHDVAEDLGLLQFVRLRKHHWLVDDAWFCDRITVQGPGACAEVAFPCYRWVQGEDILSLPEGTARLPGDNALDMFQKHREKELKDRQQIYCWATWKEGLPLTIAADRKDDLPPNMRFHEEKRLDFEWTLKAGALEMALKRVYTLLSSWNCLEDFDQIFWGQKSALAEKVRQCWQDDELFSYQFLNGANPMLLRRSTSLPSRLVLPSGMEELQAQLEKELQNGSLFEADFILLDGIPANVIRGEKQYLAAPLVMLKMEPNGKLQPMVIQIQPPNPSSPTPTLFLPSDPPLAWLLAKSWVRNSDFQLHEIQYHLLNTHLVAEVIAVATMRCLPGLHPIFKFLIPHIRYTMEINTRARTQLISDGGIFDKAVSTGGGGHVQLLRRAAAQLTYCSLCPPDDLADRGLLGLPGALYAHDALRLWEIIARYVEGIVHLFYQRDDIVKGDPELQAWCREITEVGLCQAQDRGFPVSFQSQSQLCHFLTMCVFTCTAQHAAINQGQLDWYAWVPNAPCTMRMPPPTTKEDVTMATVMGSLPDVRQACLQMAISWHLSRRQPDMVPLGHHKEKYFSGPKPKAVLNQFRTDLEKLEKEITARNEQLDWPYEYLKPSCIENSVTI

molecular target: Polyunsaturated fatty acid lipoxygenase ALOX12 (Homo sapiens) (UniProt P18054); experiment: Primary qHTS assay for inhibitors of human arachidonate 12S-lipoxygenase (ALOX12): Round 2; details: purified 12hLO, xylenol orange hydroperoxide absorbance; activity change, negative = inhibition: at 108 µM (top of the series) unless noted
Procedure, shortened: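 Hydroperoxide product was detected by ferrous iron/xylenol orange as the 573 to 405 nm absorbance ratio. Arachidonic acid at 40 uM (final) was turned over for 30 min at room temperature by 150 nM human 12hLO, pH 7.0 Hepes buffer, after 15 min compound preincubation.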
% is set by controls: 0 for no effect and ±100 for the full control effect; potency is the fitted concentration of half-maximal effect.

SMILES	activity change, negative = inhibition	Potency
CCOc1ccc(Nc2nc3ccccc3c3nnc(CC)n23)cc1	inactive: -9.11%	–
Cc1ccc(C(=O)OCc2nc3ccccc3s2)o1	–	inconclusive: 35.5 µM [inhibitor, full curve, poor fit]
Oc1c(Cl)cc(Cl)cc1/C=N/NC(=S)NC1CC2C=CC1C2 (configuration not stated)	–	inconclusive: 126 µM [inhibitor, single point]
O=C(Nc1ccc(Br)cc1)c1cccc(S(=O)(=O)Nc2ccccn2)c1	inactive: 0.635%	–
COc1ccc(NC(=O)c2cnc(SCC(=O)Nc3nc4ccc(C)cc4s3)n(C)c2=O)cc1	–	inconclusive: 89.1 µM [inhibitor, partial curve, poor fit]
CC(C)CCN1CCC2(CC1)OC(=O)N(Cc1ccc(O)cc1)C2(C)c1ccccc1 (configuration not stated)	–	inconclusive: 89.1 µM [inhibitor, partial curve, poor fit]
CCC1CCc2c(sc(NC(=O)COCC(=O)O)c2C(=O)Nc2ccccc2C)C1 (configuration not stated)	–	inconclusive: 2.24 µM [inhibitor, full curve, poor fit]
CSc1nsc(SCC(=O)Nc2nncs2)n1	–	inconclusive: 50.1 µM [inhibitor, single point]
CN1C(=O)c2cccc3c(S(=O)(=O)Nc4ccc(O)c(C(=O)O)c4)ccc1c23	–	inconclusive: 35.5 µM [inhibitor, partial curve, poor fit]
CCOC(=O)C(=O)NNc1ccc(F)cc1	–	inconclusive: 20 µM [inhibitor, partial curve, poor fit]
O=C(CC1C=CCC1)NCCc1ccccn1 (configuration not stated)	inactive: 30.5%	–
COc1ccccc1Nc1nc(C)cs1	–	inactive and inconclusive: 89.1 µM [inhibitor, partial curve, poor fit]
O=S(=O)(c1ccc(N2CCN(CCO)CC2)nc1)N1CCOCC1	–	inconclusive: 39.8 µM [inhibitor, partial curve, poor fit]
Cc1cccc(C(=O)NCC(c2ccc3c(c2)OCO3)N2CCOCC2)c1 (configuration not stated)	–	inconclusive: 11.2 µM [inhibitor, full curve, poor fit]
C=CCN(CC=C)C(=O)c1cc(-c2ccc(OCC)cc2)nc2ccccc12	–	inconclusive: 44.7 µM [inhibitor, partial curve, poor fit]
CCCc1noc(-c2ccn3c(CNC(=O)c4cc5ccccc5[nH]4)nnc3c2)n1	–	inconclusive: 56.2 µM [inhibitor, partial curve, poor fit]
Cc1cc(C(=O)O)sc1-c1ccc(C(C)(C)C)cc1	inactive: 2.92%	–
O=C(NCc1ccco1)c1ccc2c(c1)N(C(=O)c1ccc(F)cc1)CC2	inactive: 8.43%	–
CC(=O)C[C@H](O)CC(=O)[C@H]1OC(=O)[C@H](C)CCCCc2ccccc21	–	inconclusive: 44.7 µM [inhibitor, single point]
COc1ccc(CN(C)CC(O)COc2ccccc2C)c(OC)c1OC (configuration not stated)	inactive: -36.4%	–
c1ccc(C2=NNC(c3ccccn3)=NN2)nc1	–	inconclusive: 44.7 µM [inhibitor, partial curve, poor fit]
O=C(Cc1ccc2c(c1)CCC2)Nc1cc(C(F)(F)F)ccc1Cl	–	inconclusive: 126 µM [inhibitor, single point]
COc1ccc(C(CNC(=O)c2ccc(C)cc2)N2CCOCC2)cc1 (configuration not stated)	inactive: -0.93%	–

SMILES	activity change, negative = inhibition	Potency
Cc1cc(NC(=O)COC(=O)c2cc3c(s2)CCC(C)C3)no1 (configuration not stated)	–	inconclusive: 141 µM [inhibitor, partial curve, poor fit]
COc1ccc(OCC(O)CN2CCc3ccccc3C2)cc1 (configuration not stated)	inactive: -1.87%	–
CC1CCC/C(=N/Nc2ccc([N+](=O)[O-])cc2[N+](=O)[O-])C1 (configuration not stated)	–	inconclusive: 31.6 µM [inhibitor, single point]
COCc1ccc(CNC(=O)C(C)(C)C)cc1	inactive: -3.75%	–
COc1cccc(C(=O)N2CCC3(C2)NC(=O)N(Cc2ccc(Cl)cc2)C3=O)c1 (configuration not stated)	–	inconclusive: 25.1 µM [inhibitor, full curve]
N#C/C(=C\c1ccc(-c2ccccc2)o1)c1ccccc1	inactive: -34.7%	–
CCOc1ccc(C2=Nn3c(nnc3-c3cccc(C)c3)SC2)cc1	–	inconclusive: 31.6 µM [inhibitor, partial curve, poor fit]
O=C(c1cccs1)C1CCCN(C(=O)c2ccc3nccn3c2)C1 (configuration not stated)	inactive: 16.5%	–
c1ccc(CNCC2COc3ccccc3O2)cc1 (configuration not stated)	–	inconclusive: 56.2 µM [inhibitor, partial curve, poor fit]
Cn1ncc2c(=S)[nH]c(=S)[nH]c21	–	inconclusive: 44.7 µM [inhibitor, partial curve, poor fit]
Cc1cccc(OCC(=O)Nc2ccc3oc(C)nc3c2)c1	inactive: -14.3%	–
O=C(O)c1cccc(S(=O)(=O)N2CCCC(c3nc4c(nnn4Cc4ccccc4Cl)c(=O)[nH]3)C2)c1 (configuration not stated)	–	inconclusive: 141 µM [inhibitor, single point]
CNC(=O)c1ccsc1NC(=O)c1ccccc1	–	inconclusive: 100 µM [inhibitor, single point]
CC(C)(C)c1ccc(CCC2OCC(C[N+]3(C)CCCCC3)O2)cc1 (configuration not stated)	–	inconclusive: 50.1 µM [inhibitor, partial curve, poor fit]
Cc1ccc(-c2nc(N)sc2CC(=O)OCC(=O)Nc2ccc(C)c(C)c2)cc1	–	inconclusive: 39.8 µM [inhibitor, partial curve, poor fit]
Cc1ccc(NC(=O)CC2=NC(=O)C(CC(=O)Nc3ccccc3C)S2)cc1 (configuration not stated)	–	inconclusive: 79.4 µM [inhibitor, partial curve, poor fit]
Cc1cc(N2CCN(C)CC2)nc2ccc(NC(=O)Nc3ccccc3)cc12	–	inconclusive: 89.1 µM [inhibitor, partial curve, poor fit]
Cc1ccc(/C=N/Nc2cc(C)nc(NCc3ccccc3)n2)cc1	–	inconclusive: 50.1 µM [inhibitor, partial curve, poor fit]
Cc1cccc(CN2CCC(CNC(=O)Nc3cn(C)c(=O)c4ccccc34)CC2)c1	–	inconclusive: 79.4 µM [inhibitor, partial curve, poor fit]
C=Cc1ccc(Cn2c(=O)c(-c3noc(C)n3)c3n(c2=O)CCCCC3)cc1	–	inconclusive: 31.6 µM [inhibitor, full curve]
CCc1ccc(C2=C(C)C(=NCC(=O)NCc3ccc(OC)cc3)NS2(=O)=O)cc1	–	inconclusive: 35.5 µM [inhibitor, partial curve, poor fit]
COc1ccc(S(=O)(=O)NCc2ccccn2)c(Cl)c1Cl	–	inconclusive: 28.2 µM [inhibitor, partial curve, poor fit]
CN(C(=O)Cn1c(=O)n(Cc2ccc3c(c2)OCO3)c(=O)c2sccc21)C1CCCCC1	–	inconclusive: 35.5 µM [inhibitor, partial curve, poor fit]

Some of the entries so far, as labelled records.
COCc1ccc(CNC(=O)C(C)(C)C)cc1
  activity change, negative = inhibition: inactive: -3.75%
COc1cccc(C(=O)N2CCC3(C2)NC(=O)N(Cc2ccc(Cl)cc2)C3=O)c1 (configuration not stated)
  Potency: inconclusive: 25.1 µM [inhibitor, full curve]

Next part

SMILES	activity change, negative = inhibition	Potency
C[C@H]1[C@@H](NC(=O)Nc2ccc3c(c2)OCO3)CC[C@@]23CCCN2C(=O)CCC[C@@H]13	inactive: -8.59%	–
CN(CC(=O)NCc1ccccc1)Cc1cccc(F)c1	–	inconclusive: 0.316 µM [inhibitor, full curve, poor fit]
Cc1cc(S(=O)(=O)N(C)CC2CCOCC2)ccc1Cl	–	inconclusive: 89.1 µM [inhibitor, partial curve]
CC(C)(C)n1nnnc1C(c1ccc(Cl)cc1)N(Cc1cccnc1)Cc1ccco1 (configuration not stated)	inactive: -5.17%	–
Clc1ccc(C2C=C(c3ccccc3)Nc3ncnn32)c(Cl)c1 (configuration not stated)	–	inconclusive: 35.5 µM [inhibitor, partial curve]
CN(O)/C=C/C(=O)c1ccc(Br)cc1	–	inconclusive: 50.1 µM [inhibitor, partial curve, poor fit]
CC(C)N1CCN(Cc2ccccc2-c2ccco2)CC1CCO (configuration not stated)	–	inconclusive: 44.7 µM [inhibitor, partial curve]
COc1ccc2cc(C(=O)N3CCC(Cc4ccc(C(=O)NC5CC5)cc4)CC3)[nH]c2c1	–	inconclusive: 28.2 µM [inhibitor, partial curve, poor fit]
CC(=O)Nc1cc2c3c(c1)CC(=O)N3CCC2	inactive: -20.9%	–
Cc1ccc(Cl)cc1N1CCN(C(=O)CCSCc2ccccc2F)CC1	–	inconclusive: 56.2 µM [inhibitor, partial curve, poor fit]
O=C1c2c(nc(COc3ccccc3)n2Cc2ccccc2)NCCN1Cc1cccc(Cl)c1	inactive: 46.7%	–
Cn1c(=O)c2c(ncn2CC(=O)Nc2ccccc2Br)n(C)c1=O	inactive: -9.88%	–
CCCNC(=O)N1CCOC[C@H](Oc2ccccc2)C1	inactive: 32.5% [at 176 µM]	–
O=C(NS(=O)(=O)c1ccc2c(c1)OCCO2)c1ccccc1	–	inconclusive: 1.12 µM [inhibitor, full curve, poor fit]
CCn1cc(C(=O)NC(=S)Nc2cccc(O)c2)cn1	–	inconclusive: 44.7 µM [inhibitor, partial curve, poor fit]
CC(C)C(NC(=O)c1n[nH]c(=O)c2ccccc12)c1ccc(F)cc1 (configuration not stated)	–	inconclusive: 20 µM [inhibitor, partial curve, poor fit]
Cn1nnnc1SCSc1nnnn1C	inactive: 0%	–
COc1ccc2[nH]c(C)c(C(=O)CN3CC(C)OC(C)C3)c2c1 (configuration not stated)	inactive: 12.9%	–
CCNC(=S)N1CCN(c2nc(-c3ccc(F)cc3)cs2)CC1	–	inconclusive: 14.1 µM [inhibitor, partial curve, poor fit]
COc1ccc(N2CCN(C(=O)CN(Cc3ccc(Cl)cc3)S(C)(=O)=O)CC2)cc1	–	inconclusive: 50.1 µM [inhibitor, partial curve, poor fit]
CC(=O)c1cccc(NC(=O)CSc2ccc(-c3ccc4c(c3)OCO4)nn2)c1	–	inconclusive: 112 µM [inhibitor, single point]
